Experimental data published in patent US20130184462A1, “METHOD FOR PREDICTING AND MODELING ANTI-PSYCHOTIC ACTIVITY USING VIRTUAL SCREENING MODEL” (COUNCIL OF SCIENTIFIC & INDUSTRIAL RESEARCH, priority 2010, published 2013).
Several values for one entry are separate records, joined by “and”; a condition that tells them apart may be missing. Equal entries are not always repeated. Some entries share one result that the patent states for a list of compounds.

Tested on: amphetamine induced hyperactivity mice model
Assay: Amphetamine induced hyperactivity mouse model
Settings: 25 mg/kg, oral

## COC(=O)C1C(OC(C)=O)CCC2CN3CCc4c([nH]c5ccccc45)C3CC21 (stereo not drawn) [K001A, 17-O-acetyl α-yohimbine]
  inhibition in amphetamine induced hyperactivity: > 60% and > 72%

## COC(=O)C1C(OC(=O)c2cccc([N+](=O)[O-])c2)CCC2CN3CCc4c([nH]c5ccccc45)C3CC21 (stereo not drawn) [K001C, 17-O-(3″)-nitrobenzoyl α-yohimbine]
  inhibition in amphetamine induced hyperactivity: > 60% and > 72%
